The chains behind the UniProt entries cited, without tags or fusion partners. Where a name states a change or a piece, a line headed by the entry shows the natural chain unless it says otherwise.
UniProt P22234: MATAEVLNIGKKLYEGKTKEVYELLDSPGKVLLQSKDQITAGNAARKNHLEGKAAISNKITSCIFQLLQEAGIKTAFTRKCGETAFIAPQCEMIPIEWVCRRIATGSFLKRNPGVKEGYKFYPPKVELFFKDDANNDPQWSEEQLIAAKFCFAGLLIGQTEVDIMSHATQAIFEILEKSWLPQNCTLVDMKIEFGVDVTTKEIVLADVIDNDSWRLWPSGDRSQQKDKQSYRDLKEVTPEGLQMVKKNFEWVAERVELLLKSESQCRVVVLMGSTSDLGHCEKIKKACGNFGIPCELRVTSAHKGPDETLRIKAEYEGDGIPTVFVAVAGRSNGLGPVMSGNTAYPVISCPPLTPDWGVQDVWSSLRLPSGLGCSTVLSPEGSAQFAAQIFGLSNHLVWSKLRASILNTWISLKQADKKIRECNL
UniProt P24752: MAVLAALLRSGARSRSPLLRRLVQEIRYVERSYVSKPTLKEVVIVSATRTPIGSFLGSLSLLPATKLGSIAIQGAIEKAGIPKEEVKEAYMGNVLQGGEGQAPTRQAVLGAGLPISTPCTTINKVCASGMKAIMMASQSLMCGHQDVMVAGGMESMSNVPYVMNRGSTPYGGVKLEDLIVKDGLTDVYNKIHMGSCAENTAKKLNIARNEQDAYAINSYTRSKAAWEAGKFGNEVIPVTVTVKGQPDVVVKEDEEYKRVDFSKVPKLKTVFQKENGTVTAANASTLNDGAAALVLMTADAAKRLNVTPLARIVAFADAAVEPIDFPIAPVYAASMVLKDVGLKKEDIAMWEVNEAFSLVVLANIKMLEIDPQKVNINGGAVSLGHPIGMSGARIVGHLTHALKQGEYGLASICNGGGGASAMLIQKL
UniProt P27816: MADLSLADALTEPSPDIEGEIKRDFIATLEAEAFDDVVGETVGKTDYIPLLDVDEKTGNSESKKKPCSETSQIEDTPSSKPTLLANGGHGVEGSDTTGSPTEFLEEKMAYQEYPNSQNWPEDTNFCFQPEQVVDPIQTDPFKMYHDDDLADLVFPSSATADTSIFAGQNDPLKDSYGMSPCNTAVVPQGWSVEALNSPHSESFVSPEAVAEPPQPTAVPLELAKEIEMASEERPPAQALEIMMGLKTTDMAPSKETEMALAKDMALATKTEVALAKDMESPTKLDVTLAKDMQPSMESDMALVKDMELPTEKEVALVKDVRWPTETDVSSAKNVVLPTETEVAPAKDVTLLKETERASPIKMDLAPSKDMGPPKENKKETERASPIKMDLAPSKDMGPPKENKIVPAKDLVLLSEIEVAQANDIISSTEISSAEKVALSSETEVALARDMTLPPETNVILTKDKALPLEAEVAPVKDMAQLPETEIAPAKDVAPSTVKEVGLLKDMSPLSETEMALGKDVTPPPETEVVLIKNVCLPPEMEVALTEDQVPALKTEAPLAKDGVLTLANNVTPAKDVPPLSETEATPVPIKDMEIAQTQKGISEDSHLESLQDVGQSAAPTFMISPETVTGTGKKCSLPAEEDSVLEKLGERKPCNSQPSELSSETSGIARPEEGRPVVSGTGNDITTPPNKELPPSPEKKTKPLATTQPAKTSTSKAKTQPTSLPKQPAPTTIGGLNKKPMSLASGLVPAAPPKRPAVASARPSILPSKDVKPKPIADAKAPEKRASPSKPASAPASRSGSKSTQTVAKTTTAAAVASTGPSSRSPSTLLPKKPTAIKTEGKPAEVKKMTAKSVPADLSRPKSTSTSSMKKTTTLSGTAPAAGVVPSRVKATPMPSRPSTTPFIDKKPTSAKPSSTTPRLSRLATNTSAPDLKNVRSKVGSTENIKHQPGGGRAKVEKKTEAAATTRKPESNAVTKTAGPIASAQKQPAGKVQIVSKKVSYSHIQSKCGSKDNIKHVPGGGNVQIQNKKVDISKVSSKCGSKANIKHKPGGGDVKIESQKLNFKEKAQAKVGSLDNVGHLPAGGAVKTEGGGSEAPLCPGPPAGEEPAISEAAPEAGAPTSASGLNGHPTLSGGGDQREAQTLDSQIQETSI
UniProt P20810: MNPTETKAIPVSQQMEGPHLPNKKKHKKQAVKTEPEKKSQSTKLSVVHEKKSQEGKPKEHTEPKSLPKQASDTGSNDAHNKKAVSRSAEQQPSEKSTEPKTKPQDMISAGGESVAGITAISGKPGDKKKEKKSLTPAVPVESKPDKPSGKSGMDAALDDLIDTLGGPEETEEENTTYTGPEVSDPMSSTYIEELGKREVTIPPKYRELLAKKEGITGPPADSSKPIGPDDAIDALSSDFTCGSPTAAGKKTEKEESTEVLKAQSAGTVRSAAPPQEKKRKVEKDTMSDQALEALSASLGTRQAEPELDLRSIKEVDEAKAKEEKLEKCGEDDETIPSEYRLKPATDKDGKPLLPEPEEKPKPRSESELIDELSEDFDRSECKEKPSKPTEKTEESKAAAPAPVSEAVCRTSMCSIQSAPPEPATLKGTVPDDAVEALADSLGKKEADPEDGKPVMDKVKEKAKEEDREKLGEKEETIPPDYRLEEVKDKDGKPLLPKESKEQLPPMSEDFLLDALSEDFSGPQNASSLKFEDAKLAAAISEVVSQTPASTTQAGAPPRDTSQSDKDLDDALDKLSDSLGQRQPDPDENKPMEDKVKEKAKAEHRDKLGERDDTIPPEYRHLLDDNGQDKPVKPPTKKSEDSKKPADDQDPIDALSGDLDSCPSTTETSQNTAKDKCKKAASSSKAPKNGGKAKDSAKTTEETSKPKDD
UniProt P27361, whole entry: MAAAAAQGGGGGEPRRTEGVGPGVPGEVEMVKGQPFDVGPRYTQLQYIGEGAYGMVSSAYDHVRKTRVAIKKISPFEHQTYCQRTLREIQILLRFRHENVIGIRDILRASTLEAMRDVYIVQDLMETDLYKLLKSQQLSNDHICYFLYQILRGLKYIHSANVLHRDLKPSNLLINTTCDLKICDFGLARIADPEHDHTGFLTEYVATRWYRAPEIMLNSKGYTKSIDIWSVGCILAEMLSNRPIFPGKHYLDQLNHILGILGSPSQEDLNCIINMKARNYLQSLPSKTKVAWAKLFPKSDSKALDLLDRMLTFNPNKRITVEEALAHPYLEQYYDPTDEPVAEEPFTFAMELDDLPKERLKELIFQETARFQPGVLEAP
UniProt P23921: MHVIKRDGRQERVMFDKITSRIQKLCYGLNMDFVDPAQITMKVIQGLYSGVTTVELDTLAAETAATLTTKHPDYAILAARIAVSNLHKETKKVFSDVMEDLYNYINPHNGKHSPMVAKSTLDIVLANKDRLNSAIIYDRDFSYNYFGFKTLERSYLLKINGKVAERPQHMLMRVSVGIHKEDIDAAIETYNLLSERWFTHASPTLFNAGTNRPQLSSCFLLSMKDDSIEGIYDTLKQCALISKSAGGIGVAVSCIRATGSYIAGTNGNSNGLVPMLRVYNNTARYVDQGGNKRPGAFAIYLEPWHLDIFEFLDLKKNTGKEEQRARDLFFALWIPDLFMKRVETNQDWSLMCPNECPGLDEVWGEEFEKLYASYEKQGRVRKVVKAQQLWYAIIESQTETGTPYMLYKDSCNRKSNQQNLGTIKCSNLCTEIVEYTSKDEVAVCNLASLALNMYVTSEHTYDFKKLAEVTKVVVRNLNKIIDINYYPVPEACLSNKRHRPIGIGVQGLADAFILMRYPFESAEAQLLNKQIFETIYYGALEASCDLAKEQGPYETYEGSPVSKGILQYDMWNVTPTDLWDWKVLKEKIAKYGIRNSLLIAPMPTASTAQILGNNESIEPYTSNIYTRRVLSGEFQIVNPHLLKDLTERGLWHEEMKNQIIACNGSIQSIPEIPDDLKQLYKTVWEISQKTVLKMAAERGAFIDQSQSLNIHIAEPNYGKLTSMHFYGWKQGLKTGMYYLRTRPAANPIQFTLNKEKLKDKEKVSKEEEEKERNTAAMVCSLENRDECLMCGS
UniProt P29372, whole entry, looked up: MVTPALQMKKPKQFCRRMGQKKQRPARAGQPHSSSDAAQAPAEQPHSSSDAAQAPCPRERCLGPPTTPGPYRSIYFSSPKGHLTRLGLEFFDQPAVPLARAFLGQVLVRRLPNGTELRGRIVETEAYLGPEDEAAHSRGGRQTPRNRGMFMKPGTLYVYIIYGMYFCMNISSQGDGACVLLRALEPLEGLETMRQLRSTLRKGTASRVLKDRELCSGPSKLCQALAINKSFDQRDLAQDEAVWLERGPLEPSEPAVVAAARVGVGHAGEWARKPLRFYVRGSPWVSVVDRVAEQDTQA
UniProt P20700: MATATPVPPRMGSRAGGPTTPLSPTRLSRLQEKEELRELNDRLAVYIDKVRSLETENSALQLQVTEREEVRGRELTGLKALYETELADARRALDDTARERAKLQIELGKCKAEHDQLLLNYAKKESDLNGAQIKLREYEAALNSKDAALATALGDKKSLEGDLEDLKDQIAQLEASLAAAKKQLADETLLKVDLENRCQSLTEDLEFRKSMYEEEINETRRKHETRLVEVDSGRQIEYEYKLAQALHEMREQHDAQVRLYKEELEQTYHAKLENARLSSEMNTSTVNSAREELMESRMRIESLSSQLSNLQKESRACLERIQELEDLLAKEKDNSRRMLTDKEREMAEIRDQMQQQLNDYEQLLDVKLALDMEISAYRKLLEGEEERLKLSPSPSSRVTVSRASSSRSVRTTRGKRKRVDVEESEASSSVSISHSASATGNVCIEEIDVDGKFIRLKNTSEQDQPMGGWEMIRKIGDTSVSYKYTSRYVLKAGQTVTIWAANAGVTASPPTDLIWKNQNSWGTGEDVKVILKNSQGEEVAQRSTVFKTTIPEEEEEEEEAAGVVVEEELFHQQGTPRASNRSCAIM
UniProt P26358: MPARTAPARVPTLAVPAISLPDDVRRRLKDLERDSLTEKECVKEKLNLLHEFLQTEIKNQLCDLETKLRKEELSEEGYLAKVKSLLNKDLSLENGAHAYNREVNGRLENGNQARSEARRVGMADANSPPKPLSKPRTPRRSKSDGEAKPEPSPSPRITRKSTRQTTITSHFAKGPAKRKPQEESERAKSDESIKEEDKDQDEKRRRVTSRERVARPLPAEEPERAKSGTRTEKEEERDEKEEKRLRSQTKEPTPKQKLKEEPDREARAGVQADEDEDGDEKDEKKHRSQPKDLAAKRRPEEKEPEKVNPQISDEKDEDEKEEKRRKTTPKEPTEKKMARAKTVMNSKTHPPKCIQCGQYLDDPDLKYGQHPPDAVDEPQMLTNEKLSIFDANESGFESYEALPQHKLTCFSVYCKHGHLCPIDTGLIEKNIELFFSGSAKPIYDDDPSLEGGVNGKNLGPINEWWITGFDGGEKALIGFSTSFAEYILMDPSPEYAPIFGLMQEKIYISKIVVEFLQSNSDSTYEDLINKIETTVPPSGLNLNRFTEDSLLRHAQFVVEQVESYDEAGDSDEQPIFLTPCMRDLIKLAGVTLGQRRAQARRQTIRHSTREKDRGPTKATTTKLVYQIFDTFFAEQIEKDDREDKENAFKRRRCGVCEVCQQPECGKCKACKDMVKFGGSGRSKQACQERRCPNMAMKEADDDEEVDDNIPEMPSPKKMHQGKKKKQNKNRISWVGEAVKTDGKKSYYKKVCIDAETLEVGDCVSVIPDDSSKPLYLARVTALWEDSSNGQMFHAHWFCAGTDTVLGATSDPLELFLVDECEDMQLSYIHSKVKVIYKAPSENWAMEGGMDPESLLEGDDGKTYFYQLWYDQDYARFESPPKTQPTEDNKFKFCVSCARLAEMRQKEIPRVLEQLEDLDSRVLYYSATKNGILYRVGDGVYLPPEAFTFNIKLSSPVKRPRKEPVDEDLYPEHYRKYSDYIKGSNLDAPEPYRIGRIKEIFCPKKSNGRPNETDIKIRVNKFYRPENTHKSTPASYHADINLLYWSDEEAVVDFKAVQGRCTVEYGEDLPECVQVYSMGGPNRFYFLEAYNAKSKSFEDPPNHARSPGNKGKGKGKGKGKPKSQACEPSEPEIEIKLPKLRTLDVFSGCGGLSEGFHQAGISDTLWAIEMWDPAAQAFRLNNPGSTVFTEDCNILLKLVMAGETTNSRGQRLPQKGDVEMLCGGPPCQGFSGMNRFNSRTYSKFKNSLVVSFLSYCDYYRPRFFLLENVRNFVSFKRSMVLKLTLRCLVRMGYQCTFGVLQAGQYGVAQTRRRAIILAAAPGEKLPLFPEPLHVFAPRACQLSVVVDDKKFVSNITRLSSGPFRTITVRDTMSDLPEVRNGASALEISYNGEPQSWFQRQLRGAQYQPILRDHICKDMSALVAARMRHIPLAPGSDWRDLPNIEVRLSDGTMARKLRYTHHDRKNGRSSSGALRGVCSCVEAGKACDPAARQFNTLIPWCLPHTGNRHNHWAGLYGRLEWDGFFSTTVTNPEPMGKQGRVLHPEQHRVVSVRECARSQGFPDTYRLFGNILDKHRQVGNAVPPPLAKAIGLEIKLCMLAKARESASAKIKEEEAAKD
UniProt P21291: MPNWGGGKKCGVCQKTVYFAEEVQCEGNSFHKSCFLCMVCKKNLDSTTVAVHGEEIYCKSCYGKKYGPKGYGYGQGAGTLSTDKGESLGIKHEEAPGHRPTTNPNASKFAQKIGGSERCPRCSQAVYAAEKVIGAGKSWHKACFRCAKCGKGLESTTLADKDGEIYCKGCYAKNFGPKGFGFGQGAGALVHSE

The list shows a part of the results, in another mix than the full data.
What follows are targets tested with COC(=O)C#Cc1ccccc1 [methyl 3-phenylpropiolate] (assay: log2 ratio of iodoacetamide-alkyne labeling of the cysteine site, DMSO over compound (competition); higher = stronger covalent engagement of the cysteine by the compound, active = 1 or more). Conditions: 500 µM; treatment time 1 h; system: HEK293T cell lysate.
Method in brief: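 The log2 competition ratio per cysteine is defined as mean reporter intensity in control channels over mean reporter intensity in compound channels. Lysate from HEK293T cells (2 mg/mL) received electrophile (500 µM) or vehicle for 1 h at ambient temperature, followed by iodoacetamide alkyne for 1 h. Samples were clicked to sCIP-TMT reagents, pooled, trypsin-digested overnight at 37 °C, streptavidin-enriched, acid-eluted and run on Orbitrap Eclipse LC-MS/MS with FAIMS, with quantification in FragPipe. Three replicates with duplicate channels were used, and any cysteine quantified in only one replicate was excluded.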
FECH C196 (UniProt P22830) was tested, and the “log2 ratio of iodoacetamide-alkyne labeling” value (“log2 ratio” for short) was inactive: 0.356.
PAICS C288 (UniProt P22234) was tested, and the “log2 ratio” value was inactive: -0.0455.
ACAT1 C119 (UniProt P24752) was tested, and the “log2 ratio” value was inactive: 0.118.
With UniProt P26639_C343 the “log2 ratio” value was inactive: 0.143.
With ACAT1 C413 (UniProt P24752) the “log2 ratio” value was inactive: 0.182.
In the case of VARS C381 (UniProt P26640), the “log2 ratio” value is reported as inactive: 0.329.
MAP4 C635 (UniProt P27816) was tested, and the “log2 ratio” value was inactive: 0.334.
RPL12 C162 (UniProt P30050) was tested, and the “log2 ratio” value was inactive: 0.191.
With PFKL C630 (UniProt P17858) the “log2 ratio” value was inactive: 0.268.
With NME2 C145 (UniProt P22392) the “log2 ratio” value was inactive: 0.091.
In the case of ANXA7 C327 (UniProt P20073), the “log2 ratio” value is reported as inactive: 0.191.
In the case of YWHAQ C134 (UniProt P27348), the “log2 ratio” value is reported as inactive: -0.0407.
For SON C92 (UniProt P18583), the “log2 ratio” value was inactive: 0.775.
In the case of ABCD3 C24 (UniProt P28288), the “log2 ratio” value is reported as inactive: -0.00131.
With CAST C413 (UniProt P20810) the “log2 ratio” value was inactive: 0.756.
For ACAT1 C142 (UniProt P24752), the “log2 ratio” value was inactive: -0.0833.
For POLD1 C837 (UniProt P28340), the “log2 ratio” value was active: 1.16.
With PGAM1 C153 (UniProt P18669) the “log2 ratio” value was inactive: 0.299.
In the case of UniProt P27361_C271, the “log2 ratio” value is reported as inactive: 0.361.
In the case of RPL10 C49 (UniProt P27635), the “log2 ratio” value is reported as inactive: 0.507.
With MCM3 C360 (UniProt P25205) the “log2 ratio” value was inactive: 0.118.
With RRM1 C492 (UniProt P23921) the “log2 ratio” value was inactive: 0.419.
With PML C338 (UniProt P29590) the “log2 ratio” value was inactive: 0.413.
With PML C60 (UniProt P29590) the “log2 ratio” value was inactive: 0.184.
With MPG C56 (UniProt P29372) the “log2 ratio” value was active: 1.66.
For TKT C206 (UniProt P29401), the “log2 ratio” value was inactive: -0.631.
For LMNB1 C317 (UniProt P20700), the “log2 ratio” value was inactive: 0.175.
For COMT C241 (UniProt P21964), the “log2 ratio” value was inactive: 0.194.
UniProt P28482_C65 was tested, and the “log2 ratio” value was inactive: 0.107.
With CAD C1889 (UniProt P27708) the “log2 ratio” value was inactive: 0.219.
DNMT1 C1226 (UniProt P26358) was tested, and the “log2 ratio” value was inactive: -0.0963.
CAD C379 (UniProt P27708) was tested, and the “log2 ratio” value was inactive: -0.0222.
For FLNA C53 (UniProt P21333), the “log2 ratio” value was inactive: 0.133.
For CSRP1 C58 (UniProt P21291), the “log2 ratio” value was inactive: 0.21.
With EEF1B2 C50 (UniProt P24534) the “log2 ratio” value was inactive: -0.0507.
In the case of ECHS1 C225 (UniProt P30084), the “log2 ratio” value is reported as inactive: -0.0625.
With ABCD3 C477 (UniProt P28288) the “log2 ratio” value was inactive: 0.697.
In the case of ACAT1 C196 (UniProt P24752), the “log2 ratio” value is reported as inactive: 0.19.

Source: the supplement of paper PMC11006884
